The text below walks through data of publication PMC11926231.

Sequences of proteins named here, by UniProt entry; tags and fusion partners are left off.
UniProt P0DMV8: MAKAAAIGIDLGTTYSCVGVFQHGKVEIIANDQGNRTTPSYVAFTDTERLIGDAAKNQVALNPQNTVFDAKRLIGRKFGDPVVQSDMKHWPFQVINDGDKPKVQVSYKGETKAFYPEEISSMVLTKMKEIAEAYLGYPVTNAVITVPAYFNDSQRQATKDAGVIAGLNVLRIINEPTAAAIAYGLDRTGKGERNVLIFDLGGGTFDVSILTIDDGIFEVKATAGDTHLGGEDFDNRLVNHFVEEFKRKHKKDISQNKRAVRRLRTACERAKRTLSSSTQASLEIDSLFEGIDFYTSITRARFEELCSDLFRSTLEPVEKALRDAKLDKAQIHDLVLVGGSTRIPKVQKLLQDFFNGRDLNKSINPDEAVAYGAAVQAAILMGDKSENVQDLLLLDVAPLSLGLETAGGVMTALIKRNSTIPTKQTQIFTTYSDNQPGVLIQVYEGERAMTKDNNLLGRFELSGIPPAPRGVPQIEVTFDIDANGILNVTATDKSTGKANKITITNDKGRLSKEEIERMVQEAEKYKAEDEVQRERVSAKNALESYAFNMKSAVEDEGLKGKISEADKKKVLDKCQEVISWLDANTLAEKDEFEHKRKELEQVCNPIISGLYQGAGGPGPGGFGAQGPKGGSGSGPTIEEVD

Test [1] addresses T1, Period2 (PER2) in SCC25 and 293 T cells (human) (UniProt O15055).
T1 sequence: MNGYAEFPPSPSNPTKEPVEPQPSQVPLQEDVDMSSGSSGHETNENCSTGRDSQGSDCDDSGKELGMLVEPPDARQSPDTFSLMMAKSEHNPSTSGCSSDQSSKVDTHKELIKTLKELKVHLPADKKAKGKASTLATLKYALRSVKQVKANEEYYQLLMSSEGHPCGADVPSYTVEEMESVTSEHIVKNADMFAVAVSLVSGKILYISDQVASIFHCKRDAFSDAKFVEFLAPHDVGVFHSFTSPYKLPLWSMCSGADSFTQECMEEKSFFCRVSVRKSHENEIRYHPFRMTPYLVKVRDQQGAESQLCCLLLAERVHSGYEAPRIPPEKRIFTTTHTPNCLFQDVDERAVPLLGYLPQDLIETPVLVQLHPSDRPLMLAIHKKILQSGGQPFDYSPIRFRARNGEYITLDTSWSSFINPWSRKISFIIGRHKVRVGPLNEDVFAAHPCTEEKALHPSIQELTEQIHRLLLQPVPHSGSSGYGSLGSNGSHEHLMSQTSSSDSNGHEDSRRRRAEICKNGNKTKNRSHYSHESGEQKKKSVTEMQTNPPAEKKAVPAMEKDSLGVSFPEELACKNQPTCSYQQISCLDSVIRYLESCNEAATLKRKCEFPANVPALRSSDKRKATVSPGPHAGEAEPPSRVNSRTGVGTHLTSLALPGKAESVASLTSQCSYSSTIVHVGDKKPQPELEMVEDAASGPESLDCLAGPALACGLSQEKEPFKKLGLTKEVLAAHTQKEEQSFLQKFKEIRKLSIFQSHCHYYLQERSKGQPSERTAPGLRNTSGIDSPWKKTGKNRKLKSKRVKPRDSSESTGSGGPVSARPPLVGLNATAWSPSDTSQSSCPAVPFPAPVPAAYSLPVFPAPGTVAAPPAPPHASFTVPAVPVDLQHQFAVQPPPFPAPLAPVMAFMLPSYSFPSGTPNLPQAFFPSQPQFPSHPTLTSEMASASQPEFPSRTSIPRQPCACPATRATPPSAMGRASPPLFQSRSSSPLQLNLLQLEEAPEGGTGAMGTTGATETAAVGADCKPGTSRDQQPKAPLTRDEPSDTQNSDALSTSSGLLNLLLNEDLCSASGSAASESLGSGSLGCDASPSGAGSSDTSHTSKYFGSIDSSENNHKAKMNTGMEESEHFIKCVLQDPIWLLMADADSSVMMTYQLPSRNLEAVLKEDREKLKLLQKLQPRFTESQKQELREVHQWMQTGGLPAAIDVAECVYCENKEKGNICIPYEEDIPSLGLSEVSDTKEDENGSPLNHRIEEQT
In words: co-IP; SCC25 and 293 T cell lysates; PER2, HSP70, AKT or IgG antibody (1 µg) overnight at 4 °C, Protein A/G magnetic beads, western blot. In general terms: Immunoblotting shows a protein as a band on a membrane.

In test [2] the target is T2, Flag-Mut-PER2^ΔPAS1 (human) (UniProt O15055).
T2 sequence: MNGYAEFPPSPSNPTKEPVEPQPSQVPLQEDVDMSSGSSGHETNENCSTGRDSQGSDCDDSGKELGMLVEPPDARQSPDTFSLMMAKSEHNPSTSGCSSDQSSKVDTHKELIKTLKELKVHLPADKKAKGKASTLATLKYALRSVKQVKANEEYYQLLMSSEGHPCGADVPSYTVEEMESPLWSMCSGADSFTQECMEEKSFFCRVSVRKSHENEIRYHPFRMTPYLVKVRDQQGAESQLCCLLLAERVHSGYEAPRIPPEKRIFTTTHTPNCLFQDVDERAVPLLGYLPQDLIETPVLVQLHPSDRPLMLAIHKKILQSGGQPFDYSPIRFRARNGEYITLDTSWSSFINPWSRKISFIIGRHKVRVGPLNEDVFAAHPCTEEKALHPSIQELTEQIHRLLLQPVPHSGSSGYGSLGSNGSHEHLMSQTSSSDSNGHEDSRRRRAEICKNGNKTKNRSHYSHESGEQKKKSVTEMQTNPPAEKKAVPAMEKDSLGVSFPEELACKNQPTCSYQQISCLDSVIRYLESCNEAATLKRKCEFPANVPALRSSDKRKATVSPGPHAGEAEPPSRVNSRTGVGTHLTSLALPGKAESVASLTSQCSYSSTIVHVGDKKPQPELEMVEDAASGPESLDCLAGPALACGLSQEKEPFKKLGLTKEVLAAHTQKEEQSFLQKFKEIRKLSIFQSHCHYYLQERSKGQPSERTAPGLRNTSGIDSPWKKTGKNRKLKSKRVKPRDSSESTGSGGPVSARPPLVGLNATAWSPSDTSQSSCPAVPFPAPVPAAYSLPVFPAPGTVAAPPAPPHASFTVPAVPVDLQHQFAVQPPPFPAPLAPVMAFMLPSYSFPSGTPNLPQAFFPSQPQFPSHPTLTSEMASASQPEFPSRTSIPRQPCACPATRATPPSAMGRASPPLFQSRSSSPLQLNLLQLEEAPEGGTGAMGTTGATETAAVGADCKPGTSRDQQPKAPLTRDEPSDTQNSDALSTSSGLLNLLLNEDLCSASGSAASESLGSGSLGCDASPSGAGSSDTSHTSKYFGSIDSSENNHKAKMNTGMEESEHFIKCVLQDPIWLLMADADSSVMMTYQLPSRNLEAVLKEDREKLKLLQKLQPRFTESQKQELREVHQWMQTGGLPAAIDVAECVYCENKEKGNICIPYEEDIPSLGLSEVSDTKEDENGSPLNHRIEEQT
In words: co-IP; SCC25 cells transfected with Flag-tagged PER2 deletion mutants (ΔPAS1, ΔPAS2, ΔCT); antibody overnight at 4 °C, Protein A/G magnetic beads, western blot for HSP70 and AKT.

In test [3] the target is T3, Flag-Mut-PER2^ΔPAS2 (human) (UniProt O15055).
T3 sequence: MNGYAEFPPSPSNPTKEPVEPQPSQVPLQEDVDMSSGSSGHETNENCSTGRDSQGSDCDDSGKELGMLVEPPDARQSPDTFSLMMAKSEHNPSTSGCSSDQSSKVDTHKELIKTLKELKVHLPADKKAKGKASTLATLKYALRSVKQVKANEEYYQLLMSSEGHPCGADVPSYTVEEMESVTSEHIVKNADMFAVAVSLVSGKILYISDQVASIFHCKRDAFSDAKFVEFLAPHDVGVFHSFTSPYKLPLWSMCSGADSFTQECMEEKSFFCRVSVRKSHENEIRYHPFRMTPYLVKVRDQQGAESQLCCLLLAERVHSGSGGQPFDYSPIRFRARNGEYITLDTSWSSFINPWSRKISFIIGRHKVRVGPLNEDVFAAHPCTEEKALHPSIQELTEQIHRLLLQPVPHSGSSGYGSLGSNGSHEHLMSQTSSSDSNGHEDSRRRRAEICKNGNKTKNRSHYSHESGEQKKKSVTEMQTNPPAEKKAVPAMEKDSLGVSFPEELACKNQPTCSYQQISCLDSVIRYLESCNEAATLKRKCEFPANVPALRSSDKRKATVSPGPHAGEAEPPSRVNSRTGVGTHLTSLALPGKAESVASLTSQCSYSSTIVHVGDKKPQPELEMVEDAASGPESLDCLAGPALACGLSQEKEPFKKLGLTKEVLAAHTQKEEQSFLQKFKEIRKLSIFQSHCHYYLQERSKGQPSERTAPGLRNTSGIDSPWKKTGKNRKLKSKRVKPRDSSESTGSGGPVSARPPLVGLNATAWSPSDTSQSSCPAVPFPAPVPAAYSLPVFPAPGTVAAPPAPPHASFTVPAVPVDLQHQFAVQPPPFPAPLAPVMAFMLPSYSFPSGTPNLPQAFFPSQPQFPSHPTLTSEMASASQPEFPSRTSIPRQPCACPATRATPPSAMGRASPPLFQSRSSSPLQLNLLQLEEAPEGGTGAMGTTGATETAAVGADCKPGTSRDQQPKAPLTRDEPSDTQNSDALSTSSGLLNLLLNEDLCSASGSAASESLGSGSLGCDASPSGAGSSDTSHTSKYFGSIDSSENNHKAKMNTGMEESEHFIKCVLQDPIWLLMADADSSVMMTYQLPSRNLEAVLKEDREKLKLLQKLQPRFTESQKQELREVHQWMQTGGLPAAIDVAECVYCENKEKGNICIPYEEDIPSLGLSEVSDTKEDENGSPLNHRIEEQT
The description is as above.

Test [4] has as its target T4, PER2 overexpressed from the OE-PER2 lentivirus (human) (UniProt O15055).
T4 sequence: T1 sequence
In words: co-IP; Vector-SCC25, OE-PER2-SCC25 and Mut-PER2^ΔCT-SCC25 cell lysates compared; antibody overnight at 4 °C, Protein A/G magnetic beads, western blot.

In test [5] the target is T5, GST-PER2 (human) (UniProt O15055).
T5 sequence: T1 sequence
The test can be described thus: pull-down; GST-PER2 or GST-HSP70 captured on glutathione agarose from bacterial lysates (1 h, 4 °C); about 100 µg fusion protein incubated with the target proteins for 4 h in vitro; eluted with glutathione, western blot (Pierce GST Protein Interaction Pull-down Kit).

Test [6] has as its target DLAT (human (endogenous in TSCCA, SCC25 and CAL27)) (UniProt P10515). In words: native gel or EMSA; cell or tumour homogenates lysed in NP40 buffer; 30 µg on native-PAGE, blot with DLAT antibody; cells with PER2 or ATF3 overexpressed or silenced, SC79, TTM, ATF3 inducer 1 or ES. In general terms: A gel shift assay detects complexes by their altered migration in electrophoresis.

These are yes or no findings as the source states them, for the method shown. For part of these data: Binding seen in cells or lysates may run through a third protein. Some binding calls cover weakened binding; strength is not graded here. For part of these data: Tags and fused reporters may be left off the sequences shown.

As to “heat shock protein 70 (HSP70) in SCC25 and 293 T cells (from UniProt P0DMV8 1-641)”, the binding result in test [1], in test [2], in test [3] and in test [4] was “binds” each time.
Take “HSP70, target protein of the GST pull-down (from UniProt P0DMV8 1-641)”: in test [5], the binding entry is listed as “binds”.

B1: DLAT (protein, UniProt P10515 87-647)
chain: SLPPHQKVPLPSLSPTMQAGTIARWEKKEGDKINEGDLIAEVETDKATVGFESLEECYMAKILVAEGTRDVPIGAIICITVGKPEDIEAFKNYTLDSSAAPTPQAAPAPTPAATASPPTPSAQAPGSSYPPHMQVLLPALSPTMTMGTVQRWEKKVGEKLSEGDLLAEIETDKATIGFEVQEEGYLAKILVPEGTRDVPLGTPLCIIVEKEADISAFADYRPTEVTDLKPQVPPPTPPPVAAVPPTPQPLAPTPSAPCPATPAGPKGRVFVSPLAKKLAVEKGIDLTQVKGTGPDGRITKKDIDSFVPSKVAPAPAAVVPPTGPGMAPVPTGVFTDIPISNIRRVIAQRLMQSKQTIPHYYLSIDVNMGEVLLVRKELNKILEGRSKISVNDFIIKASALACLKVPEANSSWMDTVIRQNHVVDVSVAVSTPAGLITPIVFNAHIKGVETIANDVVSLATKAREGKLQPHEFQGGTFTISNLGMFGIKNFSAIINPPQACILAIGASEDKLVPADNEKGFDVASMMSVTLSCDHRVVDGAVGAQWLAEFRKYLEKPITMLL
As to B1, the binding entry in test [6] was “binds”.
